How the values were obtained:
HCT116 = experiment: cells; type: cell-based; conditions: Homo sapiens, HCT-116
CRC PDX27454 tumors = conditions: in vivo, ip
Method: Colorectal cancer (CRC) patient-derived xenograft (PDX) models were used to evaluate their in vivo antitumor activity. […] Treatments were administered weekly for four weeks on days 0, 7, 14 and 21 and tumor volumes and individual body weights were monitored.
Human xenograft tumors used. In this invention disclose, human SW620 (colorectal), HT29 (colorectal) and HT-3 (retinoblastoma) cancer cell line-established xenograft tumors were used. Human tumor cell line-derived xenograft tumors are initially established by subcutaneously injecting 2-5×10^6 cultured cancer cells in a volume of 100-150 p L medium into the flank area of severe combined immunodeficiency (SCID) mice. The derived tumors are then passed a couple of generations in mice by transplanting 30-50 mg non-necrotic tumor mass via a trocar for experiments or maintenance. […] PDX tumors were originally established on severe Combined Immunodeficiency (SCID) mice from pancreatic and colorectal cancer patient tumor tissues obtained from metastatic sites of the disease in the clinic.
Specifically, PDX tumors were originally established on severe Combined Immunodeficiency (SCID) mice from pancreatic and colorectal cancer patient tumor tissues obtained from metastatic sites of the disease in the clinic. […] The vehicle is the same think aqueous suspension without drug. […]

A549 = experiment: cells; type: cell-based; conditions: Homo sapiens
in vitro = conditions: human
HepG2 = experiment: cells; type: cell-based; conditions: Homo sapiens
HeLa = experiment: cells; type: cell-based; conditions: Homo sapiens

What does the source list for `CC[C@@]1(O)C(=O)OCc2c1cc1n(c2=O)Cc2c-1nc1cc3c(cc1c2-c1ccc(F)c(OC)c1)OCO3` [Compound 7h]?
IC50 (HCT116): 36.1 ± 1.7 nM; mouse body weights (CRC PDX27454 tumors): stable mouse body weights; IC50 (A549): 33.7 ± 1 nM; viability (in vitro): > 90%; IC50 (HepG2): 137 ± 5.7 nM; IC50 (HeLa): 72.9 ± 0.9 nM

Reference: US20250092058A1 (priority 2018, published 2025)
